In the assay the target is T1, TAF1-TAP (S. cerevisiae) (UniProt P46677).
T1 sequence: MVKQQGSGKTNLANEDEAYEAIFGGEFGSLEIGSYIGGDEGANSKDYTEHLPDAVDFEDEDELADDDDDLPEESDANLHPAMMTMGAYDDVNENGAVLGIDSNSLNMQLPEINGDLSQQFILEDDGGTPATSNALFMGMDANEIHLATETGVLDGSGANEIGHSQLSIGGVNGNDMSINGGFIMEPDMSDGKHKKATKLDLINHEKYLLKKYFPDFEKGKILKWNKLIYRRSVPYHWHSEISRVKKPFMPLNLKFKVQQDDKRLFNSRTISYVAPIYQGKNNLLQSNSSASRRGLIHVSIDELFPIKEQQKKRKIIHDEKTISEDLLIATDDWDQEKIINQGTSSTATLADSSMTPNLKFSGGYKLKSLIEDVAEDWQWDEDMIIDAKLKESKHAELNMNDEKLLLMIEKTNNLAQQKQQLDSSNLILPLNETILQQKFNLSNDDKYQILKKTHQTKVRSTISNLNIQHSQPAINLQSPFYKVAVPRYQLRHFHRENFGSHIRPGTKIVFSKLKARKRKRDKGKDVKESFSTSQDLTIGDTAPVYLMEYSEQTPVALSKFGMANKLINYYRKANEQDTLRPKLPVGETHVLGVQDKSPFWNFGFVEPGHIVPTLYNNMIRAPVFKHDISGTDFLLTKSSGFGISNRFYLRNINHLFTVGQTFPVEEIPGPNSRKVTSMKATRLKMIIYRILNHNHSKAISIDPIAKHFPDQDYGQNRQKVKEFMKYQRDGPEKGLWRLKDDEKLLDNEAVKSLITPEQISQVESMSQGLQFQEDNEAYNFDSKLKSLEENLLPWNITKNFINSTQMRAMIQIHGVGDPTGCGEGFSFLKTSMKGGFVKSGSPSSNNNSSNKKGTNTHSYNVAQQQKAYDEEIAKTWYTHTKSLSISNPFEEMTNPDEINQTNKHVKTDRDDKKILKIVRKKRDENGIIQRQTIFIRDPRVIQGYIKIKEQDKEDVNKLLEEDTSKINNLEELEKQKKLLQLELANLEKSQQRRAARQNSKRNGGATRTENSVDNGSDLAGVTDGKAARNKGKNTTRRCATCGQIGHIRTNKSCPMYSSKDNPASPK
The assay is described as follows: affinity purification with mass spectrometry; lysate of the TAF1-TAP strain on an IgG column; washes with 1 M and 50 mM potassium acetate; TEV protease elution; Superose 6 size exclusion (single peak at about 12.6 mL); subunits seen by SDS-PAGE and confirmed by mass spectrometry.

The chains behind the UniProt entries cited, without tags or fusion partners.
UniProt Q03761: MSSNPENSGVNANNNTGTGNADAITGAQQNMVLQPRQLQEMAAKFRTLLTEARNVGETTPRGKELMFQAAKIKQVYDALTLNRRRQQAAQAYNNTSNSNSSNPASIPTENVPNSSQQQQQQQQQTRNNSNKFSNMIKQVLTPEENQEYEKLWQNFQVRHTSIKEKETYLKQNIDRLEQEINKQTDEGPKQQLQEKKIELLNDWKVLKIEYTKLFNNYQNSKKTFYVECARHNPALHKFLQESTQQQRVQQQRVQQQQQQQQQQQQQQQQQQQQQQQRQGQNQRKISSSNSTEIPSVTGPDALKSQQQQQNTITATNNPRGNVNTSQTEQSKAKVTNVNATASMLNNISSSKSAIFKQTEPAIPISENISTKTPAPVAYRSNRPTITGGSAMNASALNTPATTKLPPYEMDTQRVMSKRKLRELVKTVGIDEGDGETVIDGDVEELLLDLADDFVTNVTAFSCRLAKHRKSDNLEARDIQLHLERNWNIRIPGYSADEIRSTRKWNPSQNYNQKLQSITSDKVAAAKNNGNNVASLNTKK
UniProt P35189: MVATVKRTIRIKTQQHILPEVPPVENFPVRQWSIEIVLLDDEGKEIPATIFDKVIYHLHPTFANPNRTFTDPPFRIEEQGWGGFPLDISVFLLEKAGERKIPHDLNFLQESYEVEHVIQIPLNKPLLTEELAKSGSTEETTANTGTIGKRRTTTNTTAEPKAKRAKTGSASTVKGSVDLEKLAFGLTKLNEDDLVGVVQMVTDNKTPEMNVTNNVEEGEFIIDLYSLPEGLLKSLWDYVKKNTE

Results are given in words; binding and its absence hold for the method and conditions named. In cells and extracts the contact can be indirect. Here binding means that the protein was enriched with, or labelled near, the bait; the list need not be complete.

As to TAF12 (from UniProt Q03761 1-539), the binding result is on record as “binds”.

TAF14 (from UniProt P35189 1-244): the binding result is recorded as “binds”.

B1: TAF6 (protein, UniProt P53040 1-516)
chain: MSTQQQSYTIWSPQDTVKDVAESLGLENINDDVLKALAMDVEYRILEIIEQAVKFKRHSKRDVLTTDDVSKALRVLNVEPLYGYYDGSEVNKAVSFSKVNTSGGQSVYYLDEEEVDFDRLINEPLPQVPRLPTFTTHWLAVEGVQPAIIQNPNLNDIRVSQPPFIRGAIVTALNDNSLQTPVTSTTASASVTDTGASQHLSNVKPGQNTEVKPLVKHVLSKELQIYFNKVISTLTAKSQADEAAQHMKQAALTSLRTDSGLHQLVPYFIQFIAEQITQNLSDLQLLTTILEMIYSLLSNTSIFLDPYIHSLMPSILTLLLAKKLGGSPKDDSPQEIHEFLERTNALRDFAASLLDYVLKKFPQAYKSLKPRVTRTLLKTFLDINRVFGTYYGCLKGVSVLEGESIRFFLGNLNNWARLVFNESGITLDNIEEHLNDDSNPTRTKFTKEETQILVDTVISALLVLKKDLPDLYEGKGEKVTDEDKEKLLERCGVTIGFHILKRDDAKELISAIFFGE
With B1, the binding result was “binds”.

B2: TAF3 (protein, UniProt Q12297 1-353)
chain: MTTNNDFYFALLRISILQLLKAQGFDRARPSLVDVMTDLYAKFLSLLASEVSSIAQARCDQDDTIALQDITLALENLGIVKPTNVLDVYDENSELSSSRGMEKFKDWCIYSTQLTDARITALPTVELLQSEEKESDPLSAIPDYLNQLLQNKGAKQKLETKNRKTELIEDLINNNGLDDWIKLVIARQRINMIERASKKESQNVPALPHIAGYKSSILSRHHHTTITNEDRMPSAMTPRDEDALTEIQENPFVTSKLPIMRKENRLENITLSFEDEELESLGEVEGPNQKSQENNNEESFKENNKSLTESPHGDDRDISMFQFDSNVDTKWAEQEDMDSTFQRRTSLDYGGYF
For B2, the binding entry is recorded as “binds”.

B3: TAF2 (protein, UniProt P23255 1-1407)
chain: MMSFSKNATPRAIVSESSTLHEMKFRNFRVAHEKISLDIDLATHCITGSATIIIIPLIQNLEYVTFDCKEMTIKDVLVENRRCDQFIHDDPLQTNLNGLTSQNVLYSDNSIEQSHFLRSKFASLNEYPETDSKSQLTIKIPSSIKISLEDANALSNYTPITPSIKTTPGFQESVFTPITLQIEYEIRNPKSGIKFDTVYADKPWLWNVYTSNGEICSSASYWVPCVDLLDEKSTWELEFSVPRLVKNIGTSKLIGQNGEESEKEKEDTPEHDEEEEGKPARVIKDEDKDSNLKNDEEGKNSKSKDAQDNDEEEEEGESDEEEEEGEEERRNIEESNNPSLRDVIVCCSEYSNIKELPHPIDLTKKKCIFQIINPVAPHHIGWAIGAFNSWSLPLISPPSVDAEDEVEEDKLRENVVDNVNDTMDDDIGSDIIPIQIFTLPTQETDELTVINSTVVCQKIIDFYSKEFGSYPFTCYSMVFLPTAPSKHMDFAALGICNTRLLYPLEVIDKAFSTTNELAWALANQWSCVNITPLDMNDYWCCLGIAGYMVFQVTKKLMGNNTYKYQLKRNSEAIVEQDFEKPPIGSTFTGSSRPISWSSKDLSFIQLKAPMILHILDRRMTKTERSFGMSRVLPKIFLQAMSGDLPNNSLTSSHFQHVCERVNKSKLENFFNEWVYGSGVPILRVTQRFNRKRMVIELGIRQVQDEELGHEKVVGEEGFFKSALDHLEHPDLNRTECFTGSMTIRIHEHDGTPYEHIVEIKDTFTKIDIQYNTKYRRLRKRGGGANDENGVENNNEEKPIVVDVNCLGNVYMSPEECSRFSLTEFNRTSESNELLKQNEAFEWIRIDSDLEWICQMHINQPDYMFSSQLRQDGDIEAQLEAIRYYEDVVVNGGVKSLVYSSILFRTAIDERYFFGIRLAACEALSKYVYDPDFTGGVKHLIQIFQILFCLEDSNIPKSNNFENPKLYFLQCNIPKYLAKVKNENGKCPKLVKQFLLDILVYNENGENKYSDDAYVRSLIENVVKVALNEYKDKAYMEKVKTQLLRYENLVNWLSSYESLIKTTIMYAKYKLHKVGAYDFTELTGMIMHTLTLGINNGDISRESFQNEFLMVLKIMLLEGGLKNKDALVLFTEILCFHEDSYIRDKSVDVLSECVNLVVMDGSLDTISDDIKSSVQSVHNEVKNIKSEDDIELFLSGHYVDDMKIKIEKIGRQNISGLIQICRDMFKGYSPLKILLWDVLNLPVLSLYQRKQIHDLVRVMYTLINSFVVRLETPRERRLVAKMNSNEEGKLDIVIKRESILKVHIKKEVTSTVEAPKKANKIKISLKGDKPVRKVEKQIVKPKVTSKQRKVKSHVNRMGSLPLRFVKIQQQPRVMVHLSSVPYSQFVQITKVTSRSFMVKIRTKNDAKN
For B3, the binding result was “binds”.

B4: TAF4 (protein, UniProt P50105 1-388)
chain: MANSPKKPSDGTGVSASDTPKYQHTVPETKPAFNLSPGKASELSHSLPSPSQIKSTAHVSSTHNDAAGNTDDSVLPKNVSPTTNLRVESNGDTNNMFSSPAGLALPKKDDKKKNKGTSKADSKDGKASNSSGQNAQQQSDPNKMQDVLFSAGIDVREEEALLNSSINASKSQVQTNNVKIPNHLPFLHPEQVSNYMRKVGKEQNFNLTPTKNPEILDMMSSACENYMRDILTNAIVISRHRRKAVKINSGRRSEVSAALRAIALIQKKEEERRVKKRIALGLEKEDYENKIDSEETLHRASNVTAGLRAGSKKQYGWLTSSVNKPTSLGAKSSGKVASDITARGESGLKFREAREEPGIVMRDLLFALENRRNSVQTIISKGYAKIRD
In the case of B4, the binding entry was “binds”.

B5: TAF5 (protein, UniProt P38129 1-798)
chain: MSQKQSTNQNQNGTHQPQPVKNQRTNNAAGANSGQQPQQQSQGQSQQQGRSNGPFSASDLNRIVLEYLNKKGYHRTEAMLRAESGRTLTPQNKQSPANTKTGKFPEQSSIPPNPGKTAKPISNPTNLSSKRDAEGGIVSSGRLEGLNAPENYIRAYSMLKNWVDSSLEIYKPELSYIMYPIFIYLFLNLVAKNPVYARRFFDRFSPDFKDFHGSEINRLFSVNSIDHIKENEVASAFQSHKYRITMSKTTLNLLLYFLNENESIGGSLIISVINQHLDPNIVESVTAREKLADGIKVLSDSENGNGKQNLEMNSVPVKLGPFPKDEEFVKEIETELKIKDDQEKQLNQQTAGDNYSGANNRTLLQEYKAMNNEKFKDNTGDDDKDKIKDKIAKDEEKKESELKVDGEKKDSNLSSPARDILPLPPKTALDLKLEIQKVKESRDAIKLDNLQLALPSVCMYTFQNTNKDMSCLDFSDDCRIAAAGFQDSYIKIWSLDGSSLNNPNIALNNNDKDEDPTCKTLVGHSGTVYSTSFSPDNKYLLSGSEDKTVRLWSMDTHTALVSYKGHNHPVWDVSFSPLGHYFATASHDQTARLWSCDHIYPLRIFAGHLNDVDCVSFHPNGCYVFTGSSDKTCRMWDVSTGDSVRLFLGHTAPVISIAVCPDGRWLSTGSEDGIINVWDIGTGKRLKQMRGHGKNAIYSLSYSKEGNVLISGGADHTVRVWDLKKATTEPSAEPDEPFIGYLGDVTASINQDIKEYGRRRTVIPTSDLVASFYTKKTPVFKVKFSRSNLALAGGAFRP
In the case of B5, the binding result is “binds”.

B6: TAF13 (protein, UniProt P11747 1-167)
chain: MSRKLKKTNLFNKDVSSLLYAYGDVPQPLQATVQCLDELVSGYLVDVCTNAFHTAQNSQRNKLRLEDFKFALRKDPIKLGRAEELIATNKLITEAKKQFNETDNQNSLKRYREEDEEGDEMEEDEDEQQVTDDDEEAAGRNSAKQSTDSKATKIRKQGPKNLKKTKK
Turning to B6, the binding result is on record as “binds”.

The values above are taken from PMC6650902.
